Reference: the supplement of paper PMC6411743
± gives the standard deviation of the averaged measurements. This is a selection; strong and weak results do not stand in their true shares.

Amino acid sequences for entries named in this document (tags omitted). A change or cut given only in a name is not applied to a line headed by its entry.
UniProt Q9Y3S2: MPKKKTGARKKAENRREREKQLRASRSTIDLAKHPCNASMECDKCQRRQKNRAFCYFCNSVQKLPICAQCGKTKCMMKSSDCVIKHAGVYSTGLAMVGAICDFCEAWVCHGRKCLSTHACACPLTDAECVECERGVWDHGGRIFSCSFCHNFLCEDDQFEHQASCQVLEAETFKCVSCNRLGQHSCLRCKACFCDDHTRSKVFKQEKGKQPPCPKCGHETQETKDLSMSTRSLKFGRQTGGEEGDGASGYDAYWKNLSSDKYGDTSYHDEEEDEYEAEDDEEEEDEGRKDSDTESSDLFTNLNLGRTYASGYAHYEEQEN
UniProt Q9Y6J9: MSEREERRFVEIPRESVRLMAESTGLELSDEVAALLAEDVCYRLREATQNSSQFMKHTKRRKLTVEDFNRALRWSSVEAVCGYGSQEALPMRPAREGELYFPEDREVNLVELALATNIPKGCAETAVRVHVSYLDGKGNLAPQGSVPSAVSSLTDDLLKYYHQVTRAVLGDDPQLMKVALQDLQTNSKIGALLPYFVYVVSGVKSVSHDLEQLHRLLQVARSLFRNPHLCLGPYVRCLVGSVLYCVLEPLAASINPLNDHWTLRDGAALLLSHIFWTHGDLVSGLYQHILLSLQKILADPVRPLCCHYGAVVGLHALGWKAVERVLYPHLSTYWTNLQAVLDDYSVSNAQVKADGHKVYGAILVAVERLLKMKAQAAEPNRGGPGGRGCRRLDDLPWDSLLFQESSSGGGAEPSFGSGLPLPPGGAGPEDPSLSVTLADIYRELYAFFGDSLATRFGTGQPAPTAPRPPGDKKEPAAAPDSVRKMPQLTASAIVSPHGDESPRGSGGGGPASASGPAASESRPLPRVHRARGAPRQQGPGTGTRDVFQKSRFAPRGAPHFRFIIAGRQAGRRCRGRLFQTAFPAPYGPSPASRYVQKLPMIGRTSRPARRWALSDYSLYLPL
UniProt Q9Y535: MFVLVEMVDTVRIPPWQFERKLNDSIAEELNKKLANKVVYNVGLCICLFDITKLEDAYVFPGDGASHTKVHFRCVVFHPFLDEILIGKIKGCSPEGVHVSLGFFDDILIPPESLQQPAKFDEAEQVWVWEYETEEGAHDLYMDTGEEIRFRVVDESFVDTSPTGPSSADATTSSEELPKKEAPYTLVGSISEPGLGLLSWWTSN
UniProt Q9Y6W5, whole entry: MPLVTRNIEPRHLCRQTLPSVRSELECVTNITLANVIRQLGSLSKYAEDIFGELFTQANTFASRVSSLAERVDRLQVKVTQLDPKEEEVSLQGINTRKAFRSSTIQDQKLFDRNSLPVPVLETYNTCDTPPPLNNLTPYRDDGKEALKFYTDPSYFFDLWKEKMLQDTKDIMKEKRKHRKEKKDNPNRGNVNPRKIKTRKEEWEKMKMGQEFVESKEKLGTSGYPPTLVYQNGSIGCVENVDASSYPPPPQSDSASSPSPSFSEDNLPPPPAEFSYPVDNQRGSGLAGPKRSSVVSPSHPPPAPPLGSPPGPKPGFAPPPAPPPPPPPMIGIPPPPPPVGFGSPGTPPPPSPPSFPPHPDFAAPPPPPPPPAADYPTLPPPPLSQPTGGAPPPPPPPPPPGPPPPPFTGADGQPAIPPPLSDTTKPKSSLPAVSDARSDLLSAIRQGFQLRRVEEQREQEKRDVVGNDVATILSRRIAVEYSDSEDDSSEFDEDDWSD
UniProt Q9Y421: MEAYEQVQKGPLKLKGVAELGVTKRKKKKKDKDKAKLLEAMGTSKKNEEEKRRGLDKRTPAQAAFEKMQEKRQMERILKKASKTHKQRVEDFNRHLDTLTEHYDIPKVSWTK
UniProt Q9Y6X5: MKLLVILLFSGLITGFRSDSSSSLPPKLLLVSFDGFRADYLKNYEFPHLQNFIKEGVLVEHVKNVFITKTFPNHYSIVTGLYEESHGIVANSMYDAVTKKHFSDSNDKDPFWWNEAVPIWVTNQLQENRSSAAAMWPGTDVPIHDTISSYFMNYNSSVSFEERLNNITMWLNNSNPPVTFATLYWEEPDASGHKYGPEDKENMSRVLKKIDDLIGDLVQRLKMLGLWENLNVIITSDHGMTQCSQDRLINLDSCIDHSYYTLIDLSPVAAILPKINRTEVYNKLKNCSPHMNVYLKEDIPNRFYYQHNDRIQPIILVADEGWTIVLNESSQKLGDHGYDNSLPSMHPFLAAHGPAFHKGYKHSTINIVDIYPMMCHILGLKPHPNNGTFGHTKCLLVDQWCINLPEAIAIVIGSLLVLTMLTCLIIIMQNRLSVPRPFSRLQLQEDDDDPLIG
UniProt Q9Y5Q8: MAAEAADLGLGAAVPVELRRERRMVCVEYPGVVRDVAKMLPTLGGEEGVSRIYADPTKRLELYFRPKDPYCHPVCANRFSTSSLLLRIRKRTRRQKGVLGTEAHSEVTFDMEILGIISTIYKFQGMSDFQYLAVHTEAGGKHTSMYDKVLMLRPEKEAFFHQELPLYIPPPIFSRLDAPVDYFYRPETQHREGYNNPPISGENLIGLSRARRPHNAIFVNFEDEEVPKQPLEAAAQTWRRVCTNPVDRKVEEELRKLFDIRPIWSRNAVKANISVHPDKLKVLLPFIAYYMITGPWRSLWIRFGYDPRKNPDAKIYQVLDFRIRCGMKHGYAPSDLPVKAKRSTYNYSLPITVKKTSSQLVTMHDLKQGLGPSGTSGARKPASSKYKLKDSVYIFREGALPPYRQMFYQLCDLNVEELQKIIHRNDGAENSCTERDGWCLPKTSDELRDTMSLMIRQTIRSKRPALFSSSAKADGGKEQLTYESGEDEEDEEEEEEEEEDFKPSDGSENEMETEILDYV
UniProt Q9Y547: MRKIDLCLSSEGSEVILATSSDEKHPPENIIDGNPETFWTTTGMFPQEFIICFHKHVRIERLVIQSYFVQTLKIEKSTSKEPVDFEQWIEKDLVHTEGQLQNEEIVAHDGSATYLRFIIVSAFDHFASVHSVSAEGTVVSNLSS
UniProt Q9Y6N5: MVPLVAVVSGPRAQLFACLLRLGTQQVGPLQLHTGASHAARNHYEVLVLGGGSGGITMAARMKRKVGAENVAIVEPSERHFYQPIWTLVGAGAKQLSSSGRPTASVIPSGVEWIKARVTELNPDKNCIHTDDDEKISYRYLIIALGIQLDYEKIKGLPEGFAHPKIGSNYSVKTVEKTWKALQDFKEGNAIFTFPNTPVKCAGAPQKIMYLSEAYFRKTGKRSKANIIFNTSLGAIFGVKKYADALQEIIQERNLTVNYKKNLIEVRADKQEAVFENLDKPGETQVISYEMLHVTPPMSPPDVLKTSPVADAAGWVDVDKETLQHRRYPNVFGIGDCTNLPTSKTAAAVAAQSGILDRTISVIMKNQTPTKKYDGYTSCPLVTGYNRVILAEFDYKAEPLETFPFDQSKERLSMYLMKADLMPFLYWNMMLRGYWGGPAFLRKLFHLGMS
UniProt Q9Y3Q8: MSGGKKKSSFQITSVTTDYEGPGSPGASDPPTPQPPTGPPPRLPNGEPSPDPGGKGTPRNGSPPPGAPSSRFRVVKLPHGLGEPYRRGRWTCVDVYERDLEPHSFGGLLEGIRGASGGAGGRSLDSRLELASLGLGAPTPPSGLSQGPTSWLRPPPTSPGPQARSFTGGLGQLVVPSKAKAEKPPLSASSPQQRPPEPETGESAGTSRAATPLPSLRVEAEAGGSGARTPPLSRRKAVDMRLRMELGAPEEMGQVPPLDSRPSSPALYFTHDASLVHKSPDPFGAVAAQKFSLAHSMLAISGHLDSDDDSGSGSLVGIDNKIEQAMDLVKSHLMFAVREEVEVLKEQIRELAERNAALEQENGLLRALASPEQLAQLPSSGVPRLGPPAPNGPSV
UniProt Q9Y5T5, whole entry, looked up: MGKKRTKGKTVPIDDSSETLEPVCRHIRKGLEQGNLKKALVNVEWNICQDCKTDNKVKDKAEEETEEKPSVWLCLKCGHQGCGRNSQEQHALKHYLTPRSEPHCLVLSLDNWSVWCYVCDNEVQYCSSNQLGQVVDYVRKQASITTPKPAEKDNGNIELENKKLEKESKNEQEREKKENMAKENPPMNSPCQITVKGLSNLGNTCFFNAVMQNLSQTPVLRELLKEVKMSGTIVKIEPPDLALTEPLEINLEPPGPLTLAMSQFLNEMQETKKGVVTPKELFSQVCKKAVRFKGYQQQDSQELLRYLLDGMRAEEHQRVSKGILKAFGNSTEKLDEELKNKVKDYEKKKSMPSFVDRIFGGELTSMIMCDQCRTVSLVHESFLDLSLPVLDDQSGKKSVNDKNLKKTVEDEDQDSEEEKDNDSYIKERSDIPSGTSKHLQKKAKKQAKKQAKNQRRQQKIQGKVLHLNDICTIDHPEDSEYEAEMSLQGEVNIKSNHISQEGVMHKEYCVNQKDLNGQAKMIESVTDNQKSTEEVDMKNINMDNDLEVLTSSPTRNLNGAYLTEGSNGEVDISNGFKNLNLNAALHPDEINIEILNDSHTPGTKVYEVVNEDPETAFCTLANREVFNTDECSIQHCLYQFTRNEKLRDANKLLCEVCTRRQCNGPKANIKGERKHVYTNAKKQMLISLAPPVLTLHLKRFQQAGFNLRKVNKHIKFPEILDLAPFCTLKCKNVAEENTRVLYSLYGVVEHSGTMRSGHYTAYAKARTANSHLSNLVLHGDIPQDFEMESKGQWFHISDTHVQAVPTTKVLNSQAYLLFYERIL
UniProt Q9Y530: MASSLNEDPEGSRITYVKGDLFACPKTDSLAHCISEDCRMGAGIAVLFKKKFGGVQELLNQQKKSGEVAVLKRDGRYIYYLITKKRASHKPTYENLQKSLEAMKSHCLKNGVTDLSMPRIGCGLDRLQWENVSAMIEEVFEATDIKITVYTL
UniProt Q9Y5L0: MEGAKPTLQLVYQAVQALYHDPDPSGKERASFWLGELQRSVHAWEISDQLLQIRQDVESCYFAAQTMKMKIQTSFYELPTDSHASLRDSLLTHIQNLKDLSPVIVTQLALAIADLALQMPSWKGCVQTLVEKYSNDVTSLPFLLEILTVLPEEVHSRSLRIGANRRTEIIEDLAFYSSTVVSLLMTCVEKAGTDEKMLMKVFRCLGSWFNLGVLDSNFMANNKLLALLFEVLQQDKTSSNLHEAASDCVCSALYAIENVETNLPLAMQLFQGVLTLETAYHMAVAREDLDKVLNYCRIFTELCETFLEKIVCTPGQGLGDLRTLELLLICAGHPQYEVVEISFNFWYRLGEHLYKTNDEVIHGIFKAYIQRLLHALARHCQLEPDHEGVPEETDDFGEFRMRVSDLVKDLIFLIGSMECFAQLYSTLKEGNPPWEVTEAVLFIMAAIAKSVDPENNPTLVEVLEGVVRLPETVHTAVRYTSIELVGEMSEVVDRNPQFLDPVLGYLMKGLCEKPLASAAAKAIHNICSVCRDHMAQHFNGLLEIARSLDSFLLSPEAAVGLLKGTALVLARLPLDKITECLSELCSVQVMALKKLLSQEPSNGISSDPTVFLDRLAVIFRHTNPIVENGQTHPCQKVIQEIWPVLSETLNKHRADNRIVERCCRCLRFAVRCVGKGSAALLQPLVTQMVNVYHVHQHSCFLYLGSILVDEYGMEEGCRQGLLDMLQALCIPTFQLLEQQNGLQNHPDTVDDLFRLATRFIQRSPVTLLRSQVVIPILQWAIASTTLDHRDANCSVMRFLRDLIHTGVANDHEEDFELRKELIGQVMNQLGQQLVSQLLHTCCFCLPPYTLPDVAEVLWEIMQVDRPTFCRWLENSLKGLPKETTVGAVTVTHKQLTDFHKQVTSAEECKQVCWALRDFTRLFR
UniProt Q9Y4X5: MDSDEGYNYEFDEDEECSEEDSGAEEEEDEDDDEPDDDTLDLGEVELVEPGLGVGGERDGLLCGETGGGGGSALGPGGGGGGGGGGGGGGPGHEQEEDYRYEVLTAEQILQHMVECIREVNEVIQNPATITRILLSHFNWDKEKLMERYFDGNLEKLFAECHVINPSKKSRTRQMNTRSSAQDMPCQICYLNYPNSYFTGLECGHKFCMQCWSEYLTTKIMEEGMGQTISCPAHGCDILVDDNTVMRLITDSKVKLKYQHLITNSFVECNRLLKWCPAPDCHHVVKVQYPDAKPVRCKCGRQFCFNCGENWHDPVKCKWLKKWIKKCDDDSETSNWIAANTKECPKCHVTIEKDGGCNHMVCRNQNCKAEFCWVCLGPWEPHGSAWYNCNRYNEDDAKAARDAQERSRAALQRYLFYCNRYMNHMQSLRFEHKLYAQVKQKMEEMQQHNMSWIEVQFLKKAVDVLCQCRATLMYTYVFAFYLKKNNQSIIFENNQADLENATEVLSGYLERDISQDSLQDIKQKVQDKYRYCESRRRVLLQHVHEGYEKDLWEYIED
UniProt Q9Y6A4: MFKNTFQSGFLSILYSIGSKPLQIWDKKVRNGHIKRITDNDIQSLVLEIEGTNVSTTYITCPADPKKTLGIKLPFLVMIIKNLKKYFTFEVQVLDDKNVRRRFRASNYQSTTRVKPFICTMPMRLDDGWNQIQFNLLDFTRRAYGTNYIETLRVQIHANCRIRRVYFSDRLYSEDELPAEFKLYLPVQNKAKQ
UniProt Q9UBI1, whole entry: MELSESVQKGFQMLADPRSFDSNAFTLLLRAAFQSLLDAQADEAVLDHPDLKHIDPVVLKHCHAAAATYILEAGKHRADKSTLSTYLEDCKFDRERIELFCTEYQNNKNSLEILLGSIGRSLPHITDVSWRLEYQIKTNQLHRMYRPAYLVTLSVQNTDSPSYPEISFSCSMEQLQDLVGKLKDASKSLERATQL

Compound: Nc1ncnc2c1ncn2[C@@H]1O[C@H](COP(=O)(O)OP(=O)(O)NP(=O)(O)O)[C@@H](O)[C@H]1O [adenylyl imidodiphosphate]
Assay: NP40-soluble protein abundance relative to vehicle (solubility fold change) (ratio); higher = more soluble protein in presence of AMP-PNP
How it was run: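 Across three independent experiments, values are fold changes against the detergent-processed vehicle for each replicate, based on vsn-normalised intensities. The samples were Jurkat crude lysate treated with eight concentrations (0.1 to 10 mM) for 10 min at room temperature and then 3 min at 37 °C. Lysate was solubilised with 0.8% NP40 and benzonase, ultracentrifuged, and the supernatant analysed by TMT-labelled LC-MS/MS.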

Target	NP40-soluble protein abundance (concentration: 1mM)	NP40-soluble protein abundance (concentration: 2mM)	NP40-soluble protein abundance (concentration: 4mM)	NP40-soluble protein abundance (concentration: 6mM)	NP40-soluble protein abundance (concentration: 8mM)	NP40-soluble protein abundance (concentration: 10mM)
UniProt Q9Y3Y2 and related entries	1 ± 0.061	1.01 ± 0.046	1.03 ± 0.095	1.04 ± 0.13	1.08 ± 0.14	1.2 ± 0.22
ZNF330 (UniProt Q9Y3S2)	1.07 ± 0.032	1.05 ± 0.012	1.04 ± 0.056	1.02 ± 0.015	1.04 ± 0.05	1.02 ± 0.024
TAF6L (UniProt Q9Y6J9)	0.979 ± 0.052	0.971 ± 0.029	1.01 ± 0.057	0.954 ± 0.058	0.977 ± 0.061	0.967 ± 0.036
SNX8 (UniProt Q9Y5X2)	0.975 ± 0.026	0.944 ± 0.054	0.904 ± 0.017	0.954 ± 0.031	0.95 ± 0.03	0.938 ± 0.048
SRPRB (UniProt Q9Y5M8)	1.05 ± 0.021	1.06 ± 0.011	1.04 ± 0.021	1.08 ± 0.014	1.04 ± 0.014	1.08 ± 0.033
UniProt Q9Y535 and related entries	0.9881 ± 0.0077	0.973 ± 0.033	0.981 ± 0.048	0.974 ± 0.028	0.973 ± 0.022	0.968 ± 0.018
WASF2 (UniProt Q9Y6W5)	1 ± 0.058	1.05 ± 0.019	1 ± 0.042	0.974 ± 0.055	0.957 ± 0.056	0.986 ± 0.043
NOC2L (UniProt Q9Y3T9)	1.06 ± 0.039	1.05 ± 0.062	1.03 ± 0.068	1.1 ± 0.059	1.12 ± 0.096	1.15 ± 0.094
UniProt Q9Y3F4 and related entries	1.01 ± 0.013	0.976 ± 0.051	0.956 ± 0.021	0.976 ± 0.03	0.978 ± 0.041	0.948 ± 0.054
UniProt Q9Y639 and related entries	1.01 ± 0.056	1.05 ± 0.055	1.01 ± 0.056	0.986 ± 0.028	0.984 ± 0.055	0.961 ± 0.025
UniProt Q9Y3R5 and related entries	0.993 ± 0.044	0.951 ± 0.041	0.977 ± 0.011	0.96 ± 0.032	0.937 ± 0.035	0.971 ± 0.029
LRRC42 (UniProt Q9Y546)	1.03 ± 0.027	1.02 ± 0.039	0.989 ± 0.016	1.01 ± 0.051	1 ± 0.029	0.995 ± 0.045
UniProt Q9Y6M7-13|Q9Y6M7-6	0.984 ± 0.024	1.01 ± 0.043	0.996 ± 0.018	0.981 ± 0.033	0.958 ± 0.026	0.9794 ± 0.0076
UniProt Q9Y5J7 and related entries	0.976 ± 0.018	0.988 ± 0.03	0.949 ± 0.037	0.887 ± 0.043	0.872 ± 0.02	0.89 ± 0.01
UniProt Q9Y421 and related entries	1.04 ± 0.023	1.08 ± 0.054	1.05 ± 0.029	1.06 ± 0.038	1.08 ± 0.044	1.1 ± 0.016
ENPP4 (UniProt Q9Y6X5)	1.02 ± 0.019	1.08 ± 0.067	1.04 ± 0.035	1.03 ± 0.049	1.04 ± 0.059	1.03 ± 0.055
UniProt Q9Y6R1 and related entries	0.986 ± 0.015	1.01 ± 0.02	0.986 ± 0.022	0.988 ± 0.035	0.979 ± 0.028	0.994 ± 0.016
UniProt Q9Y5Q8 and related entries	0.979 ± 0.024	0.955 ± 0.04	0.973 ± 0.029	0.927 ± 0.048	0.92 ± 0.032	0.911 ± 0.043
HSPB11 (UniProt Q9Y547)	1.01 ± 0.032	0.959 ± 0.026	0.995 ± 0.11	1.02 ± 0.12	1.08 ± 0.087	1.03 ± 0.14
UniProt Q9Y6N5	0.965 ± 0.051	0.881 ± 0.099	0.94 ± 0.019	0.923 ± 0.0092	0.941 ± 0.01	0.919 ± 0.018
ORC6 (UniProt Q9Y5N6)	1.024 ± 0.0097	1.06 ± 0.032	1.03 ± 0.04	1.05 ± 0.011	1.04 ± 0.03	1.05 ± 0.064
TSC22D4 (UniProt Q9Y3Q8)	0.996 ± 0.038	1.01 ± 0.05	0.995 ± 0.031	0.986 ± 0.039	1 ± 0.014	0.984 ± 0.043
UniProt Q9Y5T5 and related entries	1.04 ± 0.039	1.09 ± 0.082	1.13 ± 0.085	1.15 ± 0.083	1.17 ± 0.087	1.25 ± 0.11
UniProt Q9Y530	1.03 ± 0.047	1.05 ± 0.052	1.07 ± 0.071	1.06 ± 0.11	1.09 ± 0.083	1.07 ± 0.093
UniProt Q9Y5L0 and related entries	0.968 ± 0.031	0.9469 ± 0.0033	0.986 ± 0.018	1.01 ± 0.081	1.02 ± 0.092	1.01 ± 0.049
ARIH1 (UniProt Q9Y4X5)	0.984 ± 0.031	0.954 ± 0.041	0.976 ± 0.044	0.938 ± 0.023	0.981 ± 0.02	0.933 ± 0.048
UniProt Q9Y680 and related entries	1.023 ± 0.0077	1.05 ± 0.04	0.982 ± 0.034	0.9743 ± 0.0088	0.9594 ± 0.0078	0.992 ± 0.044
UniProt Q9Y6A4	0.952 ± 0.075	0.892 ± 0.032	0.968 ± 0.07	1.03 ± 0.095	1.12 ± 0.037	1.04 ± 0.085
R4GMX3 and related entries (UniProt Q9UBI1)	0.965 ± 0.036	0.951 ± 0.021	0.957 ± 0.018	0.95 ± 0.022	0.95 ± 0.034	0.917 ± 0.019

Quoted from the listing for reference:
Target	NP40-soluble protein abundance (concentration: 1mM)	NP40-soluble protein abundance (concentration: 2mM)	NP40-soluble protein abundance (concentration: 4mM)	NP40-soluble protein abundance (concentration: 6mM)	NP40-soluble protein abundance (concentration: 8mM)	NP40-soluble protein abundance (concentration: 10mM)
SNX8 (UniProt Q9Y5X2)	0.975 ± 0.026	0.944 ± 0.054	0.904 ± 0.017	0.954 ± 0.031	0.95 ± 0.03	0.938 ± 0.048
SRPRB (UniProt Q9Y5M8)	1.05 ± 0.021	1.06 ± 0.011	1.04 ± 0.021	1.08 ± 0.014	1.04 ± 0.014	1.08 ± 0.033
